Only a part is listed here, and it is no random draw. Calls of active or inactive are those of the source.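 The calls were made as follows: active = inhibition above the campaign's mean inhibition across all tested compounds plus 3 SD (cut at about 9.9% in these data); inactive = the rest.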
Assay: bacterial viability reduction in E. coli – absorbance, OD600, counter-screen for AddAB inhibitor project, primary screen (AID 449728);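 also: uninfected addAB+ strain grown without phage in ampicillin broth; 0% = DMSO wells and 100% = ciprofloxacin 0.95 µg/ml wells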
Conditions: E. coli V3065 growth, 18 h, at 11.9 µM, hits give high values

| Structure (SMILES) | inhibition |
| --- | --- |
| Oc1cc2c(c(Cl)c1O)CCNCC2c1ccccc1 (configuration not stated) | active: 10.7% |
| Cc1c2cc(O)c(=O)cc-2oc2cc(O)c(O)cc12 | active: 11.1% |
